Protein sequences, listed by entry. Tags and fused reporters are not part of them.
UniProt Q0JBA9, entry or part of it: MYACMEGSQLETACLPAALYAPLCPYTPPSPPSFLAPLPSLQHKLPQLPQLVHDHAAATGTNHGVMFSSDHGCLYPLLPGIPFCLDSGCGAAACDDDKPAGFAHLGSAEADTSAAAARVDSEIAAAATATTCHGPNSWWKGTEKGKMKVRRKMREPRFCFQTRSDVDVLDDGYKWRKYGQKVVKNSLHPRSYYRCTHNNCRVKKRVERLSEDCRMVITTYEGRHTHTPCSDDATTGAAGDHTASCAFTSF

Some of the results follow.
What follows are sequences tested against OsWRKY34 (Oryza sativa, UniProt Q0JBA9 1-250) (assay: protein-binding microarray (RPBM); PBS, 2% BSA, 51.3 ng/ul salmon testes DNA, 50 uM zinc acetate, 200 nM TF, 25 C, 1 h; high values mean tight binding). Conditions: protein: recombinant; tags: N-terminal polyhistidine and DsRed monomer fusion (pET32a); label: CyDye5-dUTP incorporated in the synthesized complementary strand; 3' TTTTT single-stranded linker to array surface; dsDNA, one strand shown.
Outline: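 Binding signal is defined as the fluorescence intensity of each feature in arbitrary units, read on an Axon 4000B scanner. Transcription factors with N-terminal polyhistidine and DsRed fusions came from E. coli BL21-CodonPlus and were purified on Ni–NTA. They were incubated at 200 nM for 1 h at 25 °C on a custom Agilent array that had been made double-stranded with Cy5-dUTP, with 50 µM zinc acetate present, and the array was washed.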
In the case of “GGGGTACTTTATTCAGTTTTGATACAGTTAGGGCTTATAGCGGAGTCACCTAGTGCAG”, the binding signal was 9110 fluorescence intensity (a.u.).
For “GGTTTGGCTTGGCTTGGCGGCTGGTTCTGCTGAGGCTGACCGGAGTCACCTAGTGCAG”, the binding signal was 11900 fluorescence intensity (a.u.).
“GCACTACTCCATCTGTACCGTCCATGCCACAAAACGAGTGCGGAGTCACCTAGTGCAG” was tested, and the binding signal was 8040 fluorescence intensity (a.u.).
For “CAGTCCTTTTTCATAACATCAATCTGTTATACACACACAACGGAGTCACCTAGTGCAG”, the binding signal was 8760 fluorescence intensity (a.u.).
In the case of “CCGATGACAAGTTGAGGGACCTTTGGTGTACTTTTTCCTTCGGAGTCACCTAGTGCAG”, the binding signal was 8040 fluorescence intensity (a.u.).
“CAAACTTCACCTCTACTCTCTCTCTCTCTCTCTCTCTCTCCGGAGTCACCTAGTGCAG” was tested, and the binding signal was 8760 fluorescence intensity (a.u.).
For “AATTGGCTTACTAAACGTGCCCATAGTTTGTAATATATCTCGGAGTCACCTAGTGCAG”, the binding signal was 8170 fluorescence intensity (a.u.).
With “TCACGATGTGGTCGATCCACATTCCAGCCTGCAACTGCACCGGAGTCACCTAGTGCAG” the binding signal was 8480 fluorescence intensity (a.u.).
With “TCTGAATTTTTTTTTCTTTGGTAAGATACTAATTGCGTTCCGGAGTCACCTAGTGCAG” the binding signal was 9650 fluorescence intensity (a.u.).
For “CCACGCGCACGCTTTTCAAACTATTAAATTATGCGTTTTTCGGAGTCACCTAGTGCAG”, the binding signal was 8340 fluorescence intensity (a.u.).
In the case of “TTAATCATATGCGGTTTCTTGTATTTCACGTGTCGCCGAACGGAGTCACCTAGTGCAG”, the binding signal was 10200 fluorescence intensity (a.u.).
“TTTTTTGATATACTATTCTTGTTGACACAAGCTCATTTTTCGGAGTCACCTAGTGCAG” was tested, and the binding signal was 11000 fluorescence intensity (a.u.).
“CATGCGACACTCTACTTTACACCTTTAGATCTAAACACCCCGGAGTCACCTAGTGCAG” was tested, and the binding signal was 8690 fluorescence intensity (a.u.).
With “GCAACCACGCGCCGTTGGCTTCGCCGCCTATATATACATACGGAGTCACCTAGTGCAG” the binding signal was 9050 fluorescence intensity (a.u.).
For “ATTTGTGTTTGTCCTTTTTCTTTTAGCTTTCTTGGCAGCCCGGAGTCACCTAGTGCAG”, the binding signal was 13100 fluorescence intensity (a.u.).
For “ACGCGGCGATGTTTCCCATTATTTCCAGCCTCCGCCGACACGGAGTCACCTAGTGCAG”, the binding signal was 8310 fluorescence intensity (a.u.).
For “GCCGGATCGAGCCCAACGCCACAGTTTCTTCTCGTCACAACGGAGTCACCTAGTGCAG”, the binding signal was 10700 fluorescence intensity (a.u.).
With “CTCTGTGTGTTGTGTGCTCGAAACAAATTATCCATGTTCTCGGAGTCACCTAGTGCAG” the binding signal was 10700 fluorescence intensity (a.u.).
With “AGTGTGTTGTGTTTGAGCTGCCGATGAAGGTGGCGGTGGACGGAGTCACCTAGTGCAG” the binding signal was 8900 fluorescence intensity (a.u.).
For “ACCCTTTTCAACCTATAAATTTATCACGGTCAGATCAATTCGGAGTCACCTAGTGCAG”, the binding signal was 8480 fluorescence intensity (a.u.).
With “CTTGCTCTCCTCTCTCGTGCTCCATCGATCGATCGATCTCCGGAGTCACCTAGTGCAG” the binding signal was 9660 fluorescence intensity (a.u.).
With “CTAATCCACTTTTTATTTTTTGCGCCATTTTTTCTTTTTCCGGAGTCACCTAGTGCAG” the binding signal was 10800 fluorescence intensity (a.u.).
For “CCCCACCAACCTCCTCCTCCGCCGCCGCCGCCGCCGCCTCCGGAGTCACCTAGTGCAG”, the binding signal was 10600 fluorescence intensity (a.u.).
For “AATAAGGCCAAATCTTCAATGCGCTCACTTTTCAGCTCATCGGAGTCACCTAGTGCAG”, the binding signal was 9760 fluorescence intensity (a.u.).
“GTACTGCGTCTACGTATACTCTCCTCTCTCTCTCTCACACCGGAGTCACCTAGTGCAG” was tested, and the binding signal was 9240 fluorescence intensity (a.u.).
“GTGTAGTGGTGTGTGTACGCGTGCGTCTACCGTATAATCGCGGAGTCACCTAGTGCAG” was tested, and the binding signal was 8210 fluorescence intensity (a.u.).
“GCGCTCGCCGCTGCCGCAAGCTCGCCTCCGACCCCGGCCACGGAGTCACCTAGTGCAG” was tested, and the binding signal was 9530 fluorescence intensity (a.u.).
For “GTGAAGATCGACGTATTTTCCGAGCTGACCCTCTGCATGCCGGAGTCACCTAGTGCAG”, the binding signal was 8180 fluorescence intensity (a.u.).
For “CCTCCTTCATTGGCACTACTACATCCTCTTTCTTCTCATCCGGAGTCACCTAGTGCAG”, the binding signal was 8400 fluorescence intensity (a.u.).
With “ATGCTGTTATGTAGATTTTCTGTTTAAGAATTGGTCTCGTCGGAGTCACCTAGTGCAG” the binding signal was 9280 fluorescence intensity (a.u.).
With “AATCTACATCTATGATCTGTCACTGCTTCTCTCTCTCTCCCGGAGTCACCTAGTGCAG” the binding signal was 10900 fluorescence intensity (a.u.).
In the case of “AGCCAATCCGTTTCTCTTTCTGTTCAGGCTGTTTGACTCACGGAGTCACCTAGTGCAG”, the binding signal was 11000 fluorescence intensity (a.u.).
With “TTCCCATTCCAGCTCCGTCTTTCTTTCTTCTCCTCCTGGACGGAGTCACCTAGTGCAG” the binding signal was 10400 fluorescence intensity (a.u.).
For “TGCCCAACTCGCGCTTTCGATTTCCGTTTTCGATTCCGTTCGGAGTCACCTAGTGCAG”, the binding signal was 11000 fluorescence intensity (a.u.).
“GCCCGGTTGATCTGCTCCCATTTCTAGCATTTTCCATTTCCGGAGTCACCTAGTGCAG” was tested, and the binding signal was 13900 fluorescence intensity (a.u.).
For “CATTCGGTTTGCTCTTCGATTCCTAACTTAACTGATTTTTCGGAGTCACCTAGTGCAG”, the binding signal was 9480 fluorescence intensity (a.u.).
With “AGGAGATGCGGTAGTTTTTTTGGTACTGCGTGCGGTGGGGCGGAGTCACCTAGTGCAG” the binding signal was 8400 fluorescence intensity (a.u.).
In the case of “CACCAACACCCAACCACCCGCTGCTAAGCTAGCTCCCAATCGGAGTCACCTAGTGCAG”, the binding signal was 9540 fluorescence intensity (a.u.).
With “CCCCAAAATACTCGACGCTGAACTTTCCCATCAGCTAGTACGGAGTCACCTAGTGCAG” the binding signal was 8280 fluorescence intensity (a.u.).
For “AATTTGATTCTTTTAGCCATGCCACTACACGCGGTAGACTCGGAGTCACCTAGTGCAG”, the binding signal was 8510 fluorescence intensity (a.u.).
In the case of “TTAATACATGTCTATTTTTCTATATGCATGTACACATTTTCGGAGTCACCTAGTGCAG”, the binding signal was 9060 fluorescence intensity (a.u.).
For “GACGTCCTCTCTTCCGCCGGTATCACCACTTCACCACTCTCGGAGTCACCTAGTGCAG”, the binding signal was 8610 fluorescence intensity (a.u.).

Reference: publication PMC7819943, “Rice protein-binding microarrays: a tool to detect cis-acting elements near promoter regions in rice”
